Experimental data published in publication PMC12040169 (PLOS Biology, 2025).
Some of the results follow.

test system: T1, CTL2-GFP (C. trachomatis L2/434/Bu, GFP-expressing); design: species or system HeLa; Intracellular C. trachomatis growth in HeLa cells, bulk GFP fluorescence relative to DMSO; conditions: bulk GFP, single well; 28.5 h, 10 µM; inhibitor
T1 construct: L2/434/Bu, GFP-expressing

SMILES	% of control remaining
Cc1oc(C2CC2)cc1C(=O)N1CCC(c2ccncc2)CC1 [CBK283514]	124.282%
CCOc1ccc(C(=O)N2CCN(S(=O)(=O)c3ccc(C)cc3C)CC2)cn1 [CBK298313]	135.641%
CCN(CC)C(=O)CN(CCc1ccc(OC)c(OC)c1)C(=O)NCCc1c[nH]c2ccccc12 [CBK158741]	111.526%
O=C(Nc1scc(-c2ccc(-c3ccccc3)cc2)c1C(=O)O)c1ccco1 [CBK266156]	95.1841%
c1ccc(-c2ccc(COc3cncc(N4CCNCC4)n3)s2)nc1 [CBK008960G]	143.102%
Cc1nc2c(OCCOc3ccc(F)cc3)cccn2c1N(C)C(=O)CCC1CCCC1 [CBK147198]	162.771%
CC1CCCCC12NC(=O)N(Cc1nnc(-c3cccs3)o1)C2=O (centres unmarked) [CBK306205]	129.624%
CC(NC(=O)N1CCC1)c1cccc(S(N)(=O)=O)c1 (centres unmarked) [CBK306357]	89.2509%
COc1ccc(Nc2ccc(-c3cccc(N(C)C)c3)cn2)cn1 [CBK037588]	181.494%
C=CCOc1ccc(-c2nnn(CC(=O)O)n2)cc1 [CBK269772]	126.393%
O=C(O)CCCCCNc1ccc(C(F)(F)F)cc1[N+](=O)[O-] [CBK286707]	130.599%
CCOC(=O)C1(Cc2cc(-c3ccccc3)no2)CCNCC1 [CBK284924]	111.465%
CN1CCN(C(=O)CC[C@@H]2CNC(=O)[C@@H]3C[C@H](NC(=O)c4cccs4)CN23)CC1 [CBK289013]	122.809%
COc1cc(NS(=O)(=O)c2ccc(NC(=O)c3cccc4ccccc34)cc2)nc(OC)n1 [CBK262465]	124.357%
O=C(CSc1nc[nH]n1)Nc1ccccc1[N+](=O)[O-] [CBK265005]	107.177%
COC(=O)c1cc(-c2cccnc2)[nH]n1 [CBK268945]	105.568%
CCN1CCN(Cc2c(C)nc3ccc(C)cc3c2O)CC1 [CBK263699]	129.298%
CSc1ccc(S(=O)(=O)NCCSCc2ccc(C)cc2)cc1 [CBK268510]	95.8886%
O=C1CNC(=O)C2(C/C=C/C[C@H]3COCC[C@@H]3N1)CCN(CC(=O)N1CCCCC1)CC2 [CBK292137]	95.5708%
CN1[C@@H](CCC(=O)N2CCc3ccccc32)CNC(=O)[C@@H]2[C@H]1CCN2Cc1ccc(O)cc1 [CBK289021]	131.76%
Cc1nc2ccc(C(=O)NC3CCCOC3)cc2s1 (centres unmarked) [CBK282509]	131.065%
CC(=O)NC(c1nccs1)C1CCCN(C(=O)C2CCCCC2)C1 (centres unmarked) [CBK282170]	100.286%
O=C(Cn1cccc(C(=O)Nc2ccc(F)cc2)c1=O)Nc1nc2c(s1)CCCCC2 [CBK286055]	120.461%
COc1cc2[nH]c(=O)c(C(=O)NCCc3ccc(Cl)cc3)c(O)c2cc1OC [CBK159986]	71.3277%
COCC(=O)N1CCC2(C/C=C/C[C@H]3COCC[C@@H]3NC(=O)CNC2=O)CC1 [CBK292158]	104.585%
NC(=O)c1ccc(NC(=O)COc2ccccc2Cl)cc1 [CBK262961]	97.0607%

In the list so far, 2 have a Cl atom:
SMILES	% of control remaining
COc1cc2[nH]c(=O)c(C(=O)NCCc3ccc(Cl)cc3)c(O)c2cc1OC [CBK159986]	71.3277%
NC(=O)c1ccc(NC(=O)COc2ccccc2Cl)cc1 [CBK262961]	97.0607%

Entries from the list above with a furan ring, fused or not, in the order listed:
SMILES	% of control remaining
Cc1oc(C2CC2)cc1C(=O)N1CCC(c2ccncc2)CC1 [CBK283514]	124.282%
O=C(Nc1scc(-c2ccc(-c3ccccc3)cc2)c1C(=O)O)c1ccco1 [CBK266156]	95.1841%

(further entries)

SMILES	% of control remaining
NS(=O)(=O)c1ccc(NC(=S)N2CCN(CCO)CC2)cc1 [CBK265891]	121.757%
O=C(O)c1cc(C(=O)O)cc(N2C(=O)c3ccc(-c4ccc5c(c4)C(=O)N(c4cc(C(=O)O)cc(C(=O)O)c4)C5=O)cc3C2=O)c1 [CBK261331]	100%
O=c1[nH]cc(S(=O)(=O)Nc2ccccc2)c(=O)[nH]1 [CBK287703]	137.693%
Fc1ccc(SCCc2ccccn2)cc1 [CBK026491G]	118.427%
O=C(NCc1cccs1)OCc1ccccc1 [CBK008074]	133.506%
Nc1nc2c(cc1C(=O)NCc1ccccc1)CN(C(=O)CCCc1ccc(F)cc1)CC2 [CBK285887]	100.442%
Cc1ccc(C(=O)N/C(=C\c2cccc([N+](=O)[O-])c2)C(=O)NC2CCCCC2)cc1 [CBK261407]	115.148%
O=c1[nH]c2ncc(-c3cccc4ncccc34)nc2n1CCCO [CBK065060]	142.832%
Cc1cc(=O)n2c(c1C#N)SCC2 [CBK027807]	122.627%
COc1ccc(C(=O)NCC(=O)NCCOC(=O)c2c(-c3c(F)cccc3Cl)noc2C)cc1 [CBK007386]	125.246%
CN(C)C(=O)c1ccc(Cn2nc(NC(=O)OCc3ccccc3)c3ccccc32)cc1 [CBK048578]	106.849%
Cc1c(S(=O)(=O)Nc2ccc3nsnc3c2)cnn1-c1ccccc1 [CBK062229]	107.753%
COCCC(=O)NC(Cc1cccs1)c1nccs1 (centres unmarked) [CBK282180]	148.676%
COC1C(O)C(CO)OC1n1cc(I)c(=O)[nH]c1=O (centres unmarked) [CBK201211]	75.9633%
Cc1c(-n2nnnc2SC(C)c2ccccc2)c(=O)n(-c2ccccc2)n1C (centres unmarked) [CBK295651]	117.309%
COc1cccc2cc(C(=O)NCc3ccc(Cl)c(Cl)c3)oc12 [CBK149795]	82.8238%
O=C(CSc1ncnc2c1oc1ccccc12)NC1CCCC1 [CBK287788]	120.682%
Cn1c(=O)c2c(-c3ccccc3)onc2n(C)c1=O [CBK023569]	99.1115%
NC(=O)CN1CC2(CCN(CCCn3c(=O)[nH]c4ccccc43)CC2)c2ccccc21 [CBK126787]	116.037%
Cc1ccc(C(=O)NCCC(=O)Nc2ccccc2C)cc1 [CBK268569]	90.9246%
CC(=O)Nc1ccc(S(=O)(=O)NCCSc2ccc(C)cc2)cc1 [CBK263563]	85.0068%
CCCCn1nccc1NC(=O)NC(C)c1ccncc1 (centres unmarked) [CBK304840]	104.541%
CCNc1nc(-c2ccc(Oc3ccccc3)cc2)cn2ccnc12 [CBK066467]	177.598%
CCN(CC(=O)N1CCN(C(=O)c2ccc(C)cc2)CC1)C(=O)OC [CBK027051]	156.432%
CCOC1CCCN(C(=O)c2cccnc2Nc2cccc(F)c2)C1 (centres unmarked) [CBK305307]	114.341%
Cc1noc(C)c1Cn1cc(NS(=O)(=O)c2cccs2)cn1 [CBK044394]	104.858%

SMILES	% of control remaining
COCCc1noc(CC2CCN(c3nc(C)cc(C#N)n3)CC2)n1 [CBK304179]	138.764%
Cc1ccc(S(=O)(=O)N2CCN(c3ccc([N+](=O)[O-])c(N4CCN(C)CC4)c3)CC2)cc1 [CBK264795]	111.997%
Cc1nc(NS(=O)(=O)c2c(C)noc2C)sc1C(=O)O [CBK045562]	107.991%
Nc1nc(CSc2nnc(-c3ccncc3)o2)nc(Nc2ccc(F)cc2)n1 [CBK266221]	76.9011%
COCCCn1c(=O)[nH]c2ncc(-c3cccc(/C=C/C(=O)O)c3)nc21 [CBK065107]	161.732%
COc1ccc(N2C(=O)C3C(CC(C)C)NC4(C(=O)N(CC(=O)Nc5ccc(C)cc5)c5ccccc54)C3C2=O)cc1 (centres unmarked) [CBK266034]	151.588%
O=C(c1ccccc1F)N1CCCC1c1n[nH]cc1-c1ccncc1 (centres unmarked) [CBK283428]	147.498%
CCN(CC)CCNC(=O)c1cc(O)nc2ccccc12 [CBK269261]	90.7875%
O=C(Nc1ccc(-c2cccc(F)c2)cc1)c1ccccc1Cn1cncn1 [CBK285565]	112.816%
Cc1ccc(CSCCNC(=O)/C=C/c2ccccc2)cc1 [CBK263985]	127.4%
CC(C)N(Cc1nc(-c2ccccc2)no1)C(=O)Nc1cccc(Cl)c1 [CBK269871]	121.731%
CCOC(=O)c1cnc2c(C)cc(Cl)cc2c1NCCN(C)C [CBK264800]	100%
CCc1ncc2c(n1)CN(Cc1cc(=O)n3cccc(C)c3n1)CC2 [CBK305914]	122.762%
O=C(C1CC(O)CN1)N1CC2(CCCC2)c2c(F)cccc21 (centres unmarked) [CBK304269C]	104.816%
OCc1ccccc1-c1cn2ccnc2c(Nc2ccc(N3CCOCC3)cc2)n1 [CBK037956]	155.332%
Cn1cc(/C=C(\C(=O)O)C(C(=O)O)=C2C3CC4CC(C3)CC2C4)c2ccccc21 [CBK263749]	100%
O=C(C1=Cc2ccccc2OC1)N1CCn2cc(C(F)(F)F)nc2C1 [CBK283913]	87.2641%
CCOC(=O)C1CCN(CC(=O)Nc2ccc(S(N)(=O)=O)cc2)CC1 [CBK266118]	150.421%
O=[N+]([O-])c1ccc(C2CNC(c3ccccc3O)O2)cc1 (centres unmarked) [CBK262298]	100%
CC(Oc1nccnc1OCc1ccc(Cl)c(Cl)c1)c1ccncc1 (centres unmarked) [CBK161609]	98.7632%
C=CCn1c(SCC(=O)N2c3ccccc3C(C)(c3ccccc3)CC2(C)C)nnc1-c1ccncc1 (centres unmarked) [CBK059171]	84.406%
COc1ccc(OC)c(S(=O)(=O)N2CCC(C(=O)O)CC2)c1 [CBK266835]	174.584%
COc1ccc(Cl)cc1CN(C)C(=O)c1cnn2cc(CCO)cnc12 [CBK307236]	98.9608%
COC(=O)c1c(NC(=O)Cn2nc([N+](=O)[O-])c(Cl)c2C)sc2c1CCCC2 [CBK263047]	118.717%
Cn1cc(C(=O)Nc2cccc(S(=O)(=O)N3CCCCCC3)c2)cn1 [CBK305715]	96.4323%
